Screen size: about 300,000 compounds; about 3,700 (1.2%) were called active. Inconclusive means that the source gave no clear call. Such entries were picked first, then a sample of the others. Calls come from the whole dose curve; tested in HEK293 cells. Potencies beside an inconclusive call are fits to weak or partial responses and may not hold up.
assay: qHTS for Inhibitors of binding or entry into cells for Lassa Virus; conditions: Lassa virus pseudotype entry inhibition, cell reporter; series mostly up to 37.9 µM; note: nearly all actives have a fitted effect of over 50% in size
Potency is the fitted concentration of half-maximal effect.

Compound	Potency
CCOc1ccc(NC(=O)Cn2c(=O)c(CNc3ccc(CC)cc3)cc3cc4c(cc32)OCO4)cc1	inconclusive: 35.5 µM [activator, partial curve, poor fit]
Cn1nc(C(F)(F)F)c(/C=N/OC(=O)c2ccccc2)c1SCc1ccccc1Cl	inconclusive: 14.6 µM [inhibitor, partial curve, poor fit]
Cc1oc2ncn(CC(C)C)c(=O)c2c1C(=O)NC(C)c1ccccc1 (stereo not drawn)	inconclusive: 1.58 µM [inhibitor, partial curve, poor fit]
CCCCNC(=S)Nc1cc(S(=O)(=O)N2CCCCC2)ccc1C	inconclusive: 35.5 µM [inhibitor, partial curve, poor fit]
Cc1noc(C)c1COc1cccc(C(=O)Nc2ccc(C#N)cc2)c1	inconclusive: 25.9 µM [inhibitor, single point]
COc1cc2c(cc1OC)C(CCc1ccccc1)=NCC2	inconclusive: 35.5 µM [inhibitor, single point]
O=[N+]([O-])c1ccc(-c2cc(-c3ccc(Cl)cc3)n[nH]2)cc1	inactive
Cc1ccc(NC(=O)CSc2nc3sc(C)cc3c(=O)n2C)cc1	inconclusive: 5.62 µM [inhibitor, single point]
NC(=O)C1CC(=O)N(c2ccc(OCc3ccc([N+](=O)[O-])cc3)cc2)C1 (stereo not drawn)	inconclusive: 3.98 µM [activator, partial curve, poor fit]
COc1ccccc1/C=C1/C(=O)N(c2cc(C)cc(C)c2)C(c2cccc([N+](=O)[O-])c2)S1(=O)=O (stereo not drawn)	inconclusive: 1.26 µM [inhibitor, single point]
CCCCC(=O)NC(=S)Nc1ccccc1N1CCCCC1	inconclusive: 29.1 µM [inhibitor, single point]
O=C(CCC(=O)N(CC(=O)NC1CCCC1)c1cccc(F)c1)Nc1nccs1	inactive
COc1ccc(C(C)=O)cc1COC(=O)c1cccc(N(C)C)c1	inconclusive: 7.94 µM [inhibitor, partial curve, poor fit]
O=C(Nc1ccc(F)cc1F)c1csc(-c2ccncc2)n1	inconclusive: 35.5 µM [activator, single point]
CCNC(=O)COc1ccc(/C=C2\COc3ccccc3C2=O)cc1OC	active: 14.6 µM
O=C(CN(Cc1cccs1)C(=O)CNS(=O)(=O)c1ccc(Cl)cc1)NCC1CCCO1 (stereo not drawn)	inconclusive: 35.5 µM [inhibitor, partial curve, poor fit]
O=C(c1cccc(S(=O)(=O)N2CCN(c3ccc(F)cc3)CC2)c1)N1CCCC(C(F)(F)F)C1 (stereo not drawn)	inconclusive: 11.2 µM [inhibitor, partial curve, poor fit]
Cc1sc2ncn(CC(=O)N3CCN(c4ccc(Cl)cc4)CC3)c(=O)c2c1S(=O)(=O)N1CCN(c2ncccn2)CC1	inactive
COc1ccc(C2C3=C(CCCC3=O)Nc3c(-c4ccccc4)c(C)nn32)cc1 (stereo not drawn)	inconclusive: 32.6 µM [inhibitor, single point]
Cc1c(C(=O)Nc2ccc3c(c2)OCCO3)oc2ccc(Br)cc12	inconclusive: 35.5 µM [inhibitor, single point]
COc1ccc(C(CCNCc2ccc(F)cc2)c2ccc(F)cc2)cc1 (stereo not drawn)	inconclusive: 29.1 µM [inhibitor, single point]

Compound	Potency
COC(=O)c1c(C)oc2ccc(N(C(=O)c3ccncc3)S(=O)(=O)c3c(C)cc(C)cc3C)cc12	inconclusive: 1.41 µM [inhibitor, full curve, poor fit]
O=C(NCc1ccccc1)c1nc(S(=O)(=O)Cc2ccccc2)ncc1Cl	inconclusive: 17.8 µM [inhibitor, single point]
COc1cccc(CC(=O)Nc2nc(-c3ccc(OC)c(OC)c3)cs2)c1	inconclusive: 15.8 µM [inhibitor, single point]
CCCN(CC(=O)Nc1ccccc1C)C(=O)c1ccc(C)c(S(=O)(=O)N2CCCCC2)c1	inconclusive: 12.6 µM [inhibitor, partial curve, poor fit]
Cc1noc(C)c1COC(=O)CCN1c2ccccc2Sc2ccccc21	inconclusive: 29.1 µM [inhibitor, single point]
Cc1ccsc1/C=C/c1ccc2cccc(O)c2n1	inconclusive: 29.1 µM [inhibitor, single point]
NC(=O)N\N=C/C=C/C=C/c1ccc(F)cc1	inconclusive: 6.31 µM [inhibitor, partial curve, poor fit]
COc1cccc(CN2CCN(c3ccc(F)cc3)C2=O)c1	inactive
O=C(NCCc1ccccc1)c1ccccc1F	inconclusive: 31.6 µM [inhibitor, single point]
CC1CC(NC(=O)c2ncn[nH]2)CC(C)(C)C1 (stereo not drawn)	inactive
CCS(=O)(=O)Nc1cccc(C2=NN(S(=O)(=O)c3ccc(C)cc3)C(c3cccs3)C2)c1 (stereo not drawn)	inconclusive: 29.1 µM [inhibitor, single point]
O=C(Nc1ccnn1C1CCN(C2CCC2)CC1)c1ccccc1Cl	inactive
CC(C)C(=O)Nc1cccc(NC(=S)NC(=O)C(c2ccccc2)c2ccccc2)c1	inconclusive: 29.1 µM [inhibitor, single point]
COc1ccc(CCN(C(=O)C(F)(F)F)C(C(=O)NC2CCCCC2)c2ccc(C)s2)cc1OC (stereo not drawn)	inconclusive: 1.83 µM [inhibitor, full curve, poor fit]
COc1ccc2c(C)cc(=S)[nH]c2c1	inconclusive: 6.31 µM [inhibitor, single point]
Cc1cc2c(NCCc3ccccc3)ncnc2s1	inconclusive: 11.2 µM [inhibitor, partial curve, poor fit]
COc1ccc(C)cc1NC(=O)c1ccc(=O)n(Cc2ccccc2)c1	inactive
Cc1cc(Br)ccc1NC(=O)CN(C)C(=O)CCSc1ccc(F)cc1	inconclusive: 1.58 µM [inhibitor, partial curve, poor fit]
Cn1c(/C=C/c2cccc([N+](=O)[O-])c2)c([N+](=O)[O-])c(=O)n(C)c1=O	inconclusive: 12.6 µM [inhibitor, partial curve, poor fit]
Cc1ccc(C(C(=O)NCC2CCCO2)N(C(=O)c2snc(C(N)=O)c2N)c2ccc(C(C)C)cc2)o1 (stereo not drawn)	inconclusive: 8.2 µM [inhibitor, partial curve]
O=c1oc(-c2cccc([N+](=O)[O-])c2)nc2ccccc12	inactive

Compound	Potency
Cc1ccc(-n2ncc3c(=O)[nH]c(SCC(=O)N4CCN(c5ccccc5)CC4)nc32)cc1	inconclusive: 0.891 µM [inhibitor, single point]
Cc1ccc(C2NC(c3ccc(C)cc3)C([N+](=O)[O-])C(C)(C)C2[N+](=O)[O-])cc1 (stereo not drawn)	inconclusive: 11.2 µM [inhibitor, single point]
COc1ccc(Cn2c(=O)[nH]c3cc(C(=O)N4CCN(c5ccccc5OC)CC4)ccc3c2=O)cc1	inconclusive: 35.5 µM [inhibitor, single point]
O=C(Nc1ccc2nc(SCC(=O)N3CCCC3)sc2c1)c1cccc(Cl)c1	inconclusive: 0.562 µM [inhibitor, full curve, poor fit]
COc1ccc(-c2cc3nc(C4CCN(C(=O)OC(C)(C)C)CC4)c(C(=O)O)cn3n2)cc1	inactive
COc1cccc(/C=N/NC(=O)C(=O)NCc2ccco2)c1O	inactive
COc1ccc(OC(=O)CCCN2C(=O)c3ccccc3C2=O)cc1	inconclusive: 1.64 µM [inhibitor, partial curve, poor fit]
COc1ccccc1NS(=O)(=O)c1cc(NC(=O)c2cccnc2)ccc1N1CCCCC1	inconclusive: 12.6 µM [inhibitor, single point]
O=C(c1ccc(COc2ccccc2Br)o1)N1N=C(C(F)F)CC1(O)C(F)F (stereo not drawn)	inactive
CCn1cc(C(=O)NCc2ccc3c(c2)OCO3)c(=O)c2cc(F)c(N3CCN(C(=O)c4ccco4)CC3)cc21	inconclusive: 6.31 µM [inhibitor, partial curve, poor fit]
COc1ccc(OC)c(-c2csc(N(CC3CCCO3)C(=O)C3CCCCC3)n2)c1 (stereo not drawn)	inactive
COC(=O)C1=C(C)N(CCc2ccccc2)C(=O)C1	inactive
COc1ccccc1NC(=O)C1=C(C)Nc2nnnn2C1c1cc(Br)c(O)c(OC)c1 (stereo not drawn)	inactive
CC1(C)CC(=O)c2sc(N3CCCCC3)nc2C1	inconclusive: 5.01 µM [activator, partial curve, poor fit]
O=c1[nH]c2ccc(Cl)cc2c(-c2ccccc2)c1N1CCN(CCO)CC1	inconclusive: 23.1 µM [inhibitor, single point]
CC(=O)Nc1ccc(S(=O)(=O)Nc2cc(-c3cn4ccccc4n3)ccc2C)cc1	inconclusive: 35.5 µM [activator, single point]
COc1ccc(N2C(=O)C(Cl)=C(Oc3cccc(OC)c3)C2=O)cc1	inconclusive: 35.5 µM [inhibitor, single point]
CC1(C)OC(=O)C(=NNc2ccc(C(=O)O)cc2)C(=O)O1	inactive
Cc1cccc(C(=O)Nc2c(C(=O)NCc3ccc(Cl)cc3)sc3nc(C)cc(C)c23)c1	inconclusive: 22.4 µM [inhibitor, single point]
O=C(Cc1ccc(F)cc1)NCCc1ccccc1	inactive
COc1ccc(OC)c(CCNC(=O)c2cnn(-c3ccccc3Cl)c2C2CCN(C(=O)OC(C)(C)C)CC2)c1	inconclusive: 3.98 µM [inhibitor, partial curve, poor fit]

A portion from further up, as a working copy:
Compound	Potency
Cc1ccc(C2NC(c3ccc(C)cc3)C([N+](=O)[O-])C(C)(C)C2[N+](=O)[O-])cc1 (stereo not drawn)	inconclusive: 11.2 µM [inhibitor, single point]
COc1ccc(Cn2c(=O)[nH]c3cc(C(=O)N4CCN(c5ccccc5OC)CC4)ccc3c2=O)cc1	inconclusive: 35.5 µM [inhibitor, single point]
O=C(Nc1ccc2nc(SCC(=O)N3CCCC3)sc2c1)c1cccc(Cl)c1	inconclusive: 0.562 µM [inhibitor, full curve, poor fit]
COc1ccc(-c2cc3nc(C4CCN(C(=O)OC(C)(C)C)CC4)c(C(=O)O)cn3n2)cc1	inactive
COc1cccc(/C=N/NC(=O)C(=O)NCc2ccco2)c1O	inactive
COc1ccc(OC(=O)CCCN2C(=O)c3ccccc3C2=O)cc1	inconclusive: 1.64 µM [inhibitor, partial curve, poor fit]
COc1ccccc1NS(=O)(=O)c1cc(NC(=O)c2cccnc2)ccc1N1CCCCC1	inconclusive: 12.6 µM [inhibitor, single point]
O=C(c1ccc(COc2ccccc2Br)o1)N1N=C(C(F)F)CC1(O)C(F)F (stereo not drawn)	inactive
CCn1cc(C(=O)NCc2ccc3c(c2)OCO3)c(=O)c2cc(F)c(N3CCN(C(=O)c4ccco4)CC3)cc21	inconclusive: 6.31 µM [inhibitor, partial curve, poor fit]
COc1ccc(OC)c(-c2csc(N(CC3CCCO3)C(=O)C3CCCCC3)n2)c1 (stereo not drawn)	inactive
COC(=O)C1=C(C)N(CCc2ccccc2)C(=O)C1	inactive
COc1ccccc1NC(=O)C1=C(C)Nc2nnnn2C1c1cc(Br)c(O)c(OC)c1 (stereo not drawn)	inactive
CC1(C)CC(=O)c2sc(N3CCCCC3)nc2C1	inconclusive: 5.01 µM [activator, partial curve, poor fit]
O=c1[nH]c2ccc(Cl)cc2c(-c2ccccc2)c1N1CCN(CCO)CC1	inconclusive: 23.1 µM [inhibitor, single point]
CC(=O)Nc1ccc(S(=O)(=O)Nc2cc(-c3cn4ccccc4n3)ccc2C)cc1	inconclusive: 35.5 µM [activator, single point]
COc1ccc(N2C(=O)C(Cl)=C(Oc3cccc(OC)c3)C2=O)cc1	inconclusive: 35.5 µM [inhibitor, single point]
CC1(C)OC(=O)C(=NNc2ccc(C(=O)O)cc2)C(=O)O1	inactive
Cc1cccc(C(=O)Nc2c(C(=O)NCc3ccc(Cl)cc3)sc3nc(C)cc(C)c23)c1	inconclusive: 22.4 µM [inhibitor, single point]
